The text below walks through data of paper PMC8325870, “SUMOylated non-canonical polycomb PRC1.6 complex as a prerequisite for recruitment of transcription factor RBPJ”.

By UniProt entry, the sequences of proteins in these tests, tags left out. Where a name states a change or a piece, a line headed by the entry shows the natural chain unless it says otherwise.
UniProt Q06330: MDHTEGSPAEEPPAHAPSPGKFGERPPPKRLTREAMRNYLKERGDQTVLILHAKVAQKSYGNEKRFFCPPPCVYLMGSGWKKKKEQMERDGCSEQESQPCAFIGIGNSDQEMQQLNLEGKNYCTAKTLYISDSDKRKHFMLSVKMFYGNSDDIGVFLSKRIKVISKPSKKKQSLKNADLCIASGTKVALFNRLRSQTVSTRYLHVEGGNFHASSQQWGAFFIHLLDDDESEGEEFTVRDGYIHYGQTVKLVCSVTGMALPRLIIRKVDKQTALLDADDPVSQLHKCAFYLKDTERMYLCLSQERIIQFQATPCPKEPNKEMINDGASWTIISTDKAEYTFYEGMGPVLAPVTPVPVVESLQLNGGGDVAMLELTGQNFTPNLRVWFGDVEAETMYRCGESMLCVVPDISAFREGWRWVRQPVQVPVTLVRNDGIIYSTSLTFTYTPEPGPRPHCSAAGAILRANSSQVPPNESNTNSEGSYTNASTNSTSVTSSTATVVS
UniProt O75461: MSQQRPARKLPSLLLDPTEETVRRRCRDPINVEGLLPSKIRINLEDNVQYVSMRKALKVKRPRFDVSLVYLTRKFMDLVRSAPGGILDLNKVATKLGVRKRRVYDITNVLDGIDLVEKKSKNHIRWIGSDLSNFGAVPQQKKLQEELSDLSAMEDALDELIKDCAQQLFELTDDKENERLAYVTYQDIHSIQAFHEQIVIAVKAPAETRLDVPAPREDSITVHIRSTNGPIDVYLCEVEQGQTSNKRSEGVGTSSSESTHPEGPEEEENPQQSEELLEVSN
UniProt Q8IWI9: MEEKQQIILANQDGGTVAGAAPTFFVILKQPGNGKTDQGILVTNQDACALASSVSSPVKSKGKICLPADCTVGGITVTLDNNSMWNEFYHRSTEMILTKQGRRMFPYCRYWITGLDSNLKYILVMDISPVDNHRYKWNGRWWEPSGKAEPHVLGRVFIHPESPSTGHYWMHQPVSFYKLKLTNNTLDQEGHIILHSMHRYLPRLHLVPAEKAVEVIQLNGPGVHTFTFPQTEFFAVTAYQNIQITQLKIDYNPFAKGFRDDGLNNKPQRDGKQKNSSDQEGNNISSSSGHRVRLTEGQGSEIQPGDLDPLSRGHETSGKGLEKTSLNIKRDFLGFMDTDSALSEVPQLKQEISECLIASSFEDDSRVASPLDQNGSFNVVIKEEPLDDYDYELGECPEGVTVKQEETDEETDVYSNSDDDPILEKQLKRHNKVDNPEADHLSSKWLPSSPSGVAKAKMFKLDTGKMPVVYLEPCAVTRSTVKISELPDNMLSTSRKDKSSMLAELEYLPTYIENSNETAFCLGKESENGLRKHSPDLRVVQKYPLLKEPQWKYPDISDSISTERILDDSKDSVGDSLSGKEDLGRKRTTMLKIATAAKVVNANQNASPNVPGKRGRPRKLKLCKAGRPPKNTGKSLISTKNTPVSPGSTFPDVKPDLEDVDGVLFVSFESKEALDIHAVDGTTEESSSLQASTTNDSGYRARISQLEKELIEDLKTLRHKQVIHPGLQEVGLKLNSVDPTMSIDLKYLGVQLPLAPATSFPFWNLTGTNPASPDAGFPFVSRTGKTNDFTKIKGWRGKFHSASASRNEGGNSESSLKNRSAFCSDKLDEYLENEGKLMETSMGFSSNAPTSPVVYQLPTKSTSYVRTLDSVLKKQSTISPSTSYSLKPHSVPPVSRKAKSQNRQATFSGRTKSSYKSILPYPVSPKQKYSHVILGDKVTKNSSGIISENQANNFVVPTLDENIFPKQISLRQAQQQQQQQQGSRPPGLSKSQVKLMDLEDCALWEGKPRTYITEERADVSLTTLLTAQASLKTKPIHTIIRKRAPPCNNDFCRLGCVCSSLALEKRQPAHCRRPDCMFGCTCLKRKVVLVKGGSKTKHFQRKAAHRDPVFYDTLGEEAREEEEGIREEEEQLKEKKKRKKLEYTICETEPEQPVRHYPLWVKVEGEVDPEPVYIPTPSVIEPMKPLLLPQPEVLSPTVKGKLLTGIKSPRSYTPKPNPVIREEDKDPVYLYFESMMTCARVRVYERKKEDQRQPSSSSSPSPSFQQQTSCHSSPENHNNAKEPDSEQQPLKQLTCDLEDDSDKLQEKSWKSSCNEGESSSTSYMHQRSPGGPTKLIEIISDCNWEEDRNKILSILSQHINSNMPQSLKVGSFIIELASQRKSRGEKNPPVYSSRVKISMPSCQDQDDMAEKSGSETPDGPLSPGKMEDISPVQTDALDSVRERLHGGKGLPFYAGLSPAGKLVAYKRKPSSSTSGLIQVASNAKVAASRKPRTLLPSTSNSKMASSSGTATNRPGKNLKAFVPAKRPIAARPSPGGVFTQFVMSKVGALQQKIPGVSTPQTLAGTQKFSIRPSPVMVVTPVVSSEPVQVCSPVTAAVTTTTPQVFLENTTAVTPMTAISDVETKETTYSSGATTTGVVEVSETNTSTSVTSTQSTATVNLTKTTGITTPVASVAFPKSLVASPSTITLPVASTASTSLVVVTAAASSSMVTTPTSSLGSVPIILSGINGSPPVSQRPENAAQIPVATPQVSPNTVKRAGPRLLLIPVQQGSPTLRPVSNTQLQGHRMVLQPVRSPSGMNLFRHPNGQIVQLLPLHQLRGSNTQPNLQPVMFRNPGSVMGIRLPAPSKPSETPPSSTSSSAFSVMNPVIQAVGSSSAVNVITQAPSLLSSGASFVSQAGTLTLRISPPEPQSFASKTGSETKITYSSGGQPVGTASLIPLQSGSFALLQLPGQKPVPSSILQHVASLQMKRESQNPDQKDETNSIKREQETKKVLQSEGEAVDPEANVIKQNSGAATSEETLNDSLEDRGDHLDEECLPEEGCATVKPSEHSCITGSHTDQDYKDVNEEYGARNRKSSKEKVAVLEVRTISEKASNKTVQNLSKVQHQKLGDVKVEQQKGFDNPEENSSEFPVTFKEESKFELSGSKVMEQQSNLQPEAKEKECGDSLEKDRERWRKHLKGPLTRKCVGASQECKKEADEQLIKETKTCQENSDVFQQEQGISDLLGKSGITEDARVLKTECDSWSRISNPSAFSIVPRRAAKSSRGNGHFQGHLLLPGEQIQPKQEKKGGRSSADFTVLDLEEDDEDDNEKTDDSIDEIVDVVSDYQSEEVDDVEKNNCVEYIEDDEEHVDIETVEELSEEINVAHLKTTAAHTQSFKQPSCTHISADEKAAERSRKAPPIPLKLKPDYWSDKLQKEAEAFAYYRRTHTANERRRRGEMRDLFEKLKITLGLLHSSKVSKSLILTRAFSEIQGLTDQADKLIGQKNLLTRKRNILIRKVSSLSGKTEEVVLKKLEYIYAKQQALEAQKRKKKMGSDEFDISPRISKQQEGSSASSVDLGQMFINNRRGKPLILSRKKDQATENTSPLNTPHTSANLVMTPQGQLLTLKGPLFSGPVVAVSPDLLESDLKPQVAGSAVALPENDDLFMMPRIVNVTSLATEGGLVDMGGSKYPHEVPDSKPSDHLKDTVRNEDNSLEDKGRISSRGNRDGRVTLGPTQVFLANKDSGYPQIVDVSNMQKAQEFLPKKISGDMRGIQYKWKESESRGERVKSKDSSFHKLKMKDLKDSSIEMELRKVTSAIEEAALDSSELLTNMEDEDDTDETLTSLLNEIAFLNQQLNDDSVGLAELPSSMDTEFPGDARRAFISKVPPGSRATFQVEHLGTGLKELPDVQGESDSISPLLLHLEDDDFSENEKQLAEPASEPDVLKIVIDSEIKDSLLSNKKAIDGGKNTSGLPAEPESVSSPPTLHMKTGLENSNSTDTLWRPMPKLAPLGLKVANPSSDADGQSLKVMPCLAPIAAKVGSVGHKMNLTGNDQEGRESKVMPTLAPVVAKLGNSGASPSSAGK
UniProt Q04721: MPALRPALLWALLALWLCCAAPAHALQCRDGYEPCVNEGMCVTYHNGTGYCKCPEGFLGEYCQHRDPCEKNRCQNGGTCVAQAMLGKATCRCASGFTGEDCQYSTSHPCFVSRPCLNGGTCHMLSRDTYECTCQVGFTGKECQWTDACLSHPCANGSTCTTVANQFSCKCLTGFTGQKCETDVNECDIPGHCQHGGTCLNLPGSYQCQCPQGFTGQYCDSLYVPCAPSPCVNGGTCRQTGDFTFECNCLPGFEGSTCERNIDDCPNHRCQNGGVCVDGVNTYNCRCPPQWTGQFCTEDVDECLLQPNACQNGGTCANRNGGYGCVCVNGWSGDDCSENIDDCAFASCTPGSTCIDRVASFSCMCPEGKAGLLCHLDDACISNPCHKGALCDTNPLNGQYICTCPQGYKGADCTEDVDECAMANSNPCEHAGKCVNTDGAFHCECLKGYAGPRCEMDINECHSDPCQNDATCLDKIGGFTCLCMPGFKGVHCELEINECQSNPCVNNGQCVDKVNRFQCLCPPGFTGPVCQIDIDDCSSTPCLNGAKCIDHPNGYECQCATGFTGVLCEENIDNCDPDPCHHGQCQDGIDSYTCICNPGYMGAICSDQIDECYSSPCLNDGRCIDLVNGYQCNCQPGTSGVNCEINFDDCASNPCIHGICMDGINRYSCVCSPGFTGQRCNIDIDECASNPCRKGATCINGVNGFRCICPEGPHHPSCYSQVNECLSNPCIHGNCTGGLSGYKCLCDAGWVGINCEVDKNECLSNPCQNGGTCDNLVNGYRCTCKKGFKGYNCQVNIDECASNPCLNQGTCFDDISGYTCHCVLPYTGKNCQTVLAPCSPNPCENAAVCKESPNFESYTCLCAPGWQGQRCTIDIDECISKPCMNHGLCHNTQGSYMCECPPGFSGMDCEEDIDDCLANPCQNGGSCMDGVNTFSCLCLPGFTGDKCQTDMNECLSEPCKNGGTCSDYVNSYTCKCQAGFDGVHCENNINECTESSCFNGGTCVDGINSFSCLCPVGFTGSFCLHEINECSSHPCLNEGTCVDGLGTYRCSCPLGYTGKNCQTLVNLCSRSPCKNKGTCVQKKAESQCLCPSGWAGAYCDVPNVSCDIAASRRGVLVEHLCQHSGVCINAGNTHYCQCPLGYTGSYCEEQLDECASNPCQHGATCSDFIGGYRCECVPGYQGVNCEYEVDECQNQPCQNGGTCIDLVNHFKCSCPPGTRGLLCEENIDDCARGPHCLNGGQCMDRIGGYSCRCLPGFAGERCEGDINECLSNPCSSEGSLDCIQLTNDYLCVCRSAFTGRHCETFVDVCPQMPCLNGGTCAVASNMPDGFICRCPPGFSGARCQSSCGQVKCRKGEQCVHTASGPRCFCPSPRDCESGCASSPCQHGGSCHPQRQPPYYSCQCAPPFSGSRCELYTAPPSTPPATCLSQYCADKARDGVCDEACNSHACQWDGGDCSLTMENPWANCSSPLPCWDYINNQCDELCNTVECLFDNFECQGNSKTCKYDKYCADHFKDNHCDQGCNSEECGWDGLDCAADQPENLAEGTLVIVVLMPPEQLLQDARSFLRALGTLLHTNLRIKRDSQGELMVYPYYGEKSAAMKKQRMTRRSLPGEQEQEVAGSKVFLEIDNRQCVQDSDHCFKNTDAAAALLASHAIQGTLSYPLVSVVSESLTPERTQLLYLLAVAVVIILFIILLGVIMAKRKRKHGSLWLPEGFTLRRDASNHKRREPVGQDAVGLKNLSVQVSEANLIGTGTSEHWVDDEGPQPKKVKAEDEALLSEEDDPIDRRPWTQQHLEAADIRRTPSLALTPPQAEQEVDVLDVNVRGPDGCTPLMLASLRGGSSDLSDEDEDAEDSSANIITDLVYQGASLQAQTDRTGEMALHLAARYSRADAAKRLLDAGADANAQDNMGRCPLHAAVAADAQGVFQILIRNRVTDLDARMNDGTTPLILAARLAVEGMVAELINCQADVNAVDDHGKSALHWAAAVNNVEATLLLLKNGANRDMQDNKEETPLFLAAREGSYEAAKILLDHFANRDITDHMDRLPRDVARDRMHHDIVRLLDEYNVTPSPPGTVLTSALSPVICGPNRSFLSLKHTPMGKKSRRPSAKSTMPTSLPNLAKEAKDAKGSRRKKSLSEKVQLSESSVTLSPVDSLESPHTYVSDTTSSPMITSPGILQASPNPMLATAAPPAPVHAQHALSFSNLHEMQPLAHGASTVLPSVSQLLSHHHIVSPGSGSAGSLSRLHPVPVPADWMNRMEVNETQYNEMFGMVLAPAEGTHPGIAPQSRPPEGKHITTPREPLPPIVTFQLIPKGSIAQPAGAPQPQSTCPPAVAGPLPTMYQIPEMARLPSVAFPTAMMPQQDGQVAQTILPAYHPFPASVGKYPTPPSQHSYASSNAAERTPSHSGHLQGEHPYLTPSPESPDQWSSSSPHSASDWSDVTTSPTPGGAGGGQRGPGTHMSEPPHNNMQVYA

Results are given in words; binding and its absence hold for the method and conditions named. In cells and extracts the contact can be indirect. These calls come from enrichment with a bait or labelling near it, and not all partners need be listed.

In this test the target is Flag-HA-tagged human RBPJ (human) (UniProt Q06330). Nature of the test: affinity purification with mass spectrometry; Flag-HA-RBPJ complexes from HeLa-S nuclear extract (salt extraction), dialysed with or without a double-stranded oligonucleotide with two RBPJ sites (2 µg) and a mutated oligonucleotide (16 µg); anti-Flag (M2) agarose in TAP buffer (50 mM Tris-HCl pH 7.9, 100 mM KCl, 5 mM MgCl2, 10% glycerol, 0.1% NP-40, 1 mM DTT) 4 h, 4 °C; eluted with Flag peptides; LC-MS/MS.

Take “E2F6 (E2F Transcription Factor 6) (from UniProt O75461 1-281)”: the binding result is listed as “binds”.

Regarding “L3MBTL2 (Lethal (3) malignant brain tumor-like protein 2), endogenous in HeLa-S (from UniProt Q969R5 1-705)”, the binding entry is “binds”.

As to “MGA (MAX gene associated) (from UniProt Q8IWI9 1-3065)”, the binding result was “binds”.

With NOTCH2 (from UniProt Q04721), the binding result is “binds”.

B1: RITA (RBPJ Interacting and tubulin associated) (protein, UniProt Q96K30 1-269)
chain: MKTPVELAVSGMQTLGLQHRCRGGYRVKARTSYVDETLFGSPAGTRPTPPDFDPPWVEKANRTRGVGKEASKALGAKGSCETTPSRGSTPTLTPRKKNKYRPISHTPSYCDESLFGSRSEGASFGAPRMAKGDAAKLRALLWTPPPTPRGSHSPRPREAPLRAIHPAGPSKTEPGPAADSQKLSMGGLHSSRPLKRGLSHSLTHLNVPSTGHPATSAPHTNGPQDLRPSTSGVTFRSPLVTSRARSVSISVPSTPRRGGATQKPKPPWK
Consider B1, for which the binding entry is on record as “binds”.
